Data published in PubChem BioAssay AID488885 (Broad Institute, 2010).
Inconclusive results, whose numbers are uncertain, are shown with a selection of clear calls. The source made the active and inactive calls.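 Rule for the calls: active = compounds raising caspase signal whose fitted half-max concentration is within ten times the top valid dose; inconclusive = flat curve with moderate caspase rise, or unreliable fit; inactive = flat near zero, too weak, or opposite direction.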

Experiment: caspase activation in Mcl1-dependent HMC1-8 cells, dose response, selectivity assay for A1 inhibitor project, cell-based, CaspaseGlo luminescence, dry powder (AID 488885)
Details: HMC1-8 (Mcl1-dependent) caspase activation, 4 h; at 150 µM (top of the series) unless noted
How it was run: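 Material: Low-A1 HMC 1-8 human cancer cells; Amount: 2500 cells per well; Detection: luminescence with CaspaseGlo reagent; Times: 4 h compound at 37 °C, 1 h reagent at room temperature; Buffer or medium: RPMI-1640, 10% FBS; Doses: test compound delivered to cells by pin transfer.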

| Compound | caspase activation | outcome |
| --- | --- | --- |
| Cn1c(=NC(=O)CCl)sc2ccccc21 | inactive: -4.38% |  |
| Cc1cccc(NC(=O)/C(C#N)=C/c2cn(CC(=O)NCc3ccco3)c3ccccc23)c1 | inconclusive: 60.2% |  |
| Cc1ccc(Sc2c([N+](=O)[O-])c(=O)n(C)c3ccccc23)cc1 | inactive: -9.5% |  |
| CC1(C)CCC(c2ccc(Cl)cc2)=C(CN2CCN(c3ccc(C(=O)NS(=O)(=O)c4ccc(N[C@H](CCN5CCOCC5)CSc5ccccc5)c(S(=O)(=O)C(F)(F)F)c4)cc3)CC2)C1 |  | inconclusive |
| Cc1c(CCOC(=O)c2ccc(N3CCOCC3)c([N+](=O)[O-])c2)sc[n+]1CC#N | inconclusive: 10.2% |  |
| COc1cc(/C=C(/C#N)c2nc3ccccc3[nH]2)ccc1OCC(=O)Nc1ccccc1C(C)C | inactive: 13.5% |  |
| Nc1nc(F)nc2c1ncn2[C@@H]1O[C@H](CO)[C@@H](O)[C@H]1O | inconclusive: 91% [at 13.5 µM] |  |
| Cc1cccc(CS(=O)(=O)c2ncc(Cl)c(C(=O)Nc3nnc(C(C)C)s3)n2)c1 | inconclusive: -36.5% |  |
| COc1ccc(N(C(=O)CCl)C(C(=O)NCCc2ccccc2)c2cccs2)cc1Cl (centres undefined) | inconclusive: -22% |  |
| Cc1c(C=O)c(C=O)c(C)n1Cc1ccccc1 | inconclusive: 561% |  |
| Cc1cc(C(=O)CCl)c(C)n1CCc1ccc(Cl)cc1 | inconclusive: 27.7% |  |
| CCc1cc2c(=O)c(-c3cnn(-c4ccccc4)c3)c(C)oc2cc1OCC(=O)Nc1cccc(C)c1 | inconclusive: 15.7% |  |
| O=C(Oc1cccc(/C=N/Nc2nc(Nc3ccccc3)nc(N3CCOCC3)n2)c1)c1ccco1 | inactive: 3.81% |  |
| Cc1ccc(CS(=O)(=O)c2ncc(Cl)c(C(=O)Nc3nnc(C(C)C)s3)n2)cc1 | inconclusive: -36.4% |  |
| CCSc1nnc(NC(=O)c2nc(S(=O)(=O)Cc3ccc(F)cc3)ncc2Cl)s1 | inconclusive: -42.3% |  |
| COc1cccc(C(=O)C(C#N)=C(SC)SC)c1 | inconclusive: -55.4% |  |
| CCc1nnc(NC(=O)c2nc(S(=O)(=O)Cc3ccccc3)ncc2Cl)s1 | inconclusive: -21.8% |  |
| CC(=O)N[C@H]1[C@H](O[C@H]2CC[C@@]3(C)C(CC[C@]4(C)C3CC=C3[C@@H]5CC(C)(C)CC[C@]5(C(=O)OC5OCC(O)C(O)C5O)C(O)C[C@]34C)C2(C)C)O[C@H](COC2OCC(O)C(OC3OCC(O)C(O)C3O)C2O)[C@@H](O[C@@H]2O[C@@H](C)[C@H](O)[C@@H](O)[C@H]2O[C@@H]2O[C@@H](C)[C@H](O)[C@@H](O)[C@H]2O)[C@@H]1O (some centres undefined) | inconclusive: -7.61% [at 135 µM] |  |
| CCOC(=O)CSC1=N/C(=C/c2ccc(-n3cncn3)cc2)C(=O)N1C(C)=O | inconclusive: 86.3% |  |

Single entries from above:
In caspase activation, CCSc1nnc(NC(=O)c2nc(S(=O)(=O)Cc3ccc(F)cc3)ncc2Cl)s1 has the entry inconclusive: -42.3%
In caspase activation, COc1cc(/C=C(/C#N)c2nc3ccccc3[nH]2)ccc1OCC(=O)Nc1ccccc1C(C)C has the entry inactive: 13.5%
